In doi:10.1101/2024.12.13.628418:
No constants are given. Whether binding was seen depends on the method and setting. In cells and extracts the contact can be indirect. These calls come from enrichment with a bait or labelling near it, and not all partners need be listed. For part of these data: A no says only that the protein was not detected with the bait. For part of these data: Tags and fused reporters may be left off the sequences shown.

Amino acid sequences for entries named in this document (tags omitted). A change or cut given only in a name is not applied to a line headed by its entry.
UniProt A0A8I6ZAC4: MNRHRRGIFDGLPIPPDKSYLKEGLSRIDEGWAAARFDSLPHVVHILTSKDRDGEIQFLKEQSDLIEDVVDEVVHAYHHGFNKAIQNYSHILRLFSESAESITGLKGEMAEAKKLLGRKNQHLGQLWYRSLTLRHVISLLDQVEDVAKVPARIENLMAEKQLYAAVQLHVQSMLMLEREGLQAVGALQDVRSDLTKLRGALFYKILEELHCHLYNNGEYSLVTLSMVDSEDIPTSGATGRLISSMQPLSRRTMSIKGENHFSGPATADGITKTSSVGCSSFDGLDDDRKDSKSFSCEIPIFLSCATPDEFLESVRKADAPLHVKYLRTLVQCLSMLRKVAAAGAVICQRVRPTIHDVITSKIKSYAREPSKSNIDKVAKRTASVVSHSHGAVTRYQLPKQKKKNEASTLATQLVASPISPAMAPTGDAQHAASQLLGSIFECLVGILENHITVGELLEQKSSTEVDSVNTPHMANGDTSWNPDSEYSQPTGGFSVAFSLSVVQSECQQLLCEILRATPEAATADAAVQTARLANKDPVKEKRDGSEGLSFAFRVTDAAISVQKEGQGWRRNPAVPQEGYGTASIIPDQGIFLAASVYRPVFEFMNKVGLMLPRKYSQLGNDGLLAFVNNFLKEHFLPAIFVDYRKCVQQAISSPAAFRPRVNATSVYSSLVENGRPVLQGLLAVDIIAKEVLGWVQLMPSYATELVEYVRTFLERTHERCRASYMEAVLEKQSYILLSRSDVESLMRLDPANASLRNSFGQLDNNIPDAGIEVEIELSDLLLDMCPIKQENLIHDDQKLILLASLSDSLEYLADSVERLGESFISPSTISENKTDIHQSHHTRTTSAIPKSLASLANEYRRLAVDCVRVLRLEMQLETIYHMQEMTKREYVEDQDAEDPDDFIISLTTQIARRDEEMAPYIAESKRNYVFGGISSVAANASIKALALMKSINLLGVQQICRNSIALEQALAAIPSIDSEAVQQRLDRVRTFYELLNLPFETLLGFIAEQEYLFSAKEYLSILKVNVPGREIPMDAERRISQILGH
UniProt A0A8I7B8K2: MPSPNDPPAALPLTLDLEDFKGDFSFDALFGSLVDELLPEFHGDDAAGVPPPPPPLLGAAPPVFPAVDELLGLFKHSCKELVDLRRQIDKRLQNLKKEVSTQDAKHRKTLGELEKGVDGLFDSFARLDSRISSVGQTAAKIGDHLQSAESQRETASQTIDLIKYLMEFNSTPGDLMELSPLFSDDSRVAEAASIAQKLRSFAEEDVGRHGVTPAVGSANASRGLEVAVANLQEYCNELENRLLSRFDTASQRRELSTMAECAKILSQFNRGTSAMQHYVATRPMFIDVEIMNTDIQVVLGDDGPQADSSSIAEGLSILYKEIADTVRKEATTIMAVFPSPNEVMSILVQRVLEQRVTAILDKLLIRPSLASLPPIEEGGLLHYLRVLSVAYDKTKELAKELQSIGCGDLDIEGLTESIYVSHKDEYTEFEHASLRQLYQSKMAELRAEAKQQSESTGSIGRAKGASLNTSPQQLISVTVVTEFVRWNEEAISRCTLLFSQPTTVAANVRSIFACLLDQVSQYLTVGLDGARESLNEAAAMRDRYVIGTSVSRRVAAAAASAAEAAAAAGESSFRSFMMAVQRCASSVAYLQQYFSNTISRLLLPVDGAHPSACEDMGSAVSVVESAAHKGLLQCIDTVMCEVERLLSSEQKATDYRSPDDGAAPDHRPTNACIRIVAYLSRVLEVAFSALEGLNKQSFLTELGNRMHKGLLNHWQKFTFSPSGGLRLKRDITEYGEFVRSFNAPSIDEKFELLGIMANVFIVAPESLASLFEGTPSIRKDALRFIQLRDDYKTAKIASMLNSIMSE
UniProt M0Z256: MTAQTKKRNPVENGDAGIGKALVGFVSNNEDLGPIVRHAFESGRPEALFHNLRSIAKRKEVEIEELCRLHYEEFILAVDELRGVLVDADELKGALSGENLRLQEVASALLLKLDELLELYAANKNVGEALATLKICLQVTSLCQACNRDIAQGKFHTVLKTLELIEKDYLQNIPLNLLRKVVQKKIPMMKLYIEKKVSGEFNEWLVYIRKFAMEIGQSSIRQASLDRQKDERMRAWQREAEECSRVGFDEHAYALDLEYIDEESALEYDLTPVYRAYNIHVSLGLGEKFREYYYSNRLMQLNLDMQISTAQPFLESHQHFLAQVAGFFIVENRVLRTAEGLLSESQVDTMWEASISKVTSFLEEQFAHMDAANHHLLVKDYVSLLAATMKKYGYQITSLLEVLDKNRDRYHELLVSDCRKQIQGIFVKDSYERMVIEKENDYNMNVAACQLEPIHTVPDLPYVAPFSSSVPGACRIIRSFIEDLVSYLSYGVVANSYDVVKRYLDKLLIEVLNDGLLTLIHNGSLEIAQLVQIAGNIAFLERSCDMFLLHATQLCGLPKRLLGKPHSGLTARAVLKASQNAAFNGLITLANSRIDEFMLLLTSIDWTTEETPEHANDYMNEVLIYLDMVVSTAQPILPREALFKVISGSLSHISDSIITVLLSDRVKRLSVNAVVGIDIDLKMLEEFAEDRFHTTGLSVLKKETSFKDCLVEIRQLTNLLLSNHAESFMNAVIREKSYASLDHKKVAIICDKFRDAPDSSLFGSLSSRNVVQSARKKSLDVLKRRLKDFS
UniProt A0A8I6X584: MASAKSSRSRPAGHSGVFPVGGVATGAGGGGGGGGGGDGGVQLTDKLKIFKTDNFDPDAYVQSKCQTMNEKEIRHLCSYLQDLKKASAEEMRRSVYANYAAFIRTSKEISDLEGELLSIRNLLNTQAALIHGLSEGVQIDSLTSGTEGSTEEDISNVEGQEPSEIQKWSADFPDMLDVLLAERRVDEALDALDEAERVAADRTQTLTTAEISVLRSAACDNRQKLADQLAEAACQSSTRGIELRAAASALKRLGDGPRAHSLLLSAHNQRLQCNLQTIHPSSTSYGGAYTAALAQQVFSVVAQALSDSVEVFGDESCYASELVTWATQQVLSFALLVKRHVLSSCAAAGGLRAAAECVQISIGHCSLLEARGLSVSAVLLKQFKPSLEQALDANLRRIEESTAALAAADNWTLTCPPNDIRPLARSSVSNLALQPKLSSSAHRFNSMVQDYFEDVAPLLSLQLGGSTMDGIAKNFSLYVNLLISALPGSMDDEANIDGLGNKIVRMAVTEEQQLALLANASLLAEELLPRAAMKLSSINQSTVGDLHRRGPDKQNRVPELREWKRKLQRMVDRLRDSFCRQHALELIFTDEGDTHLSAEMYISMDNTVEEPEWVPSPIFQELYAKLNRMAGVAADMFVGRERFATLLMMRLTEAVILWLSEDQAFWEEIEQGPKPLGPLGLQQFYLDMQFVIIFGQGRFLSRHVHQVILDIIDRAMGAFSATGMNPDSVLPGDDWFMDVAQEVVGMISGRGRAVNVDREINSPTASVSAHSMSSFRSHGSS
UniProt A0A8I6XA15: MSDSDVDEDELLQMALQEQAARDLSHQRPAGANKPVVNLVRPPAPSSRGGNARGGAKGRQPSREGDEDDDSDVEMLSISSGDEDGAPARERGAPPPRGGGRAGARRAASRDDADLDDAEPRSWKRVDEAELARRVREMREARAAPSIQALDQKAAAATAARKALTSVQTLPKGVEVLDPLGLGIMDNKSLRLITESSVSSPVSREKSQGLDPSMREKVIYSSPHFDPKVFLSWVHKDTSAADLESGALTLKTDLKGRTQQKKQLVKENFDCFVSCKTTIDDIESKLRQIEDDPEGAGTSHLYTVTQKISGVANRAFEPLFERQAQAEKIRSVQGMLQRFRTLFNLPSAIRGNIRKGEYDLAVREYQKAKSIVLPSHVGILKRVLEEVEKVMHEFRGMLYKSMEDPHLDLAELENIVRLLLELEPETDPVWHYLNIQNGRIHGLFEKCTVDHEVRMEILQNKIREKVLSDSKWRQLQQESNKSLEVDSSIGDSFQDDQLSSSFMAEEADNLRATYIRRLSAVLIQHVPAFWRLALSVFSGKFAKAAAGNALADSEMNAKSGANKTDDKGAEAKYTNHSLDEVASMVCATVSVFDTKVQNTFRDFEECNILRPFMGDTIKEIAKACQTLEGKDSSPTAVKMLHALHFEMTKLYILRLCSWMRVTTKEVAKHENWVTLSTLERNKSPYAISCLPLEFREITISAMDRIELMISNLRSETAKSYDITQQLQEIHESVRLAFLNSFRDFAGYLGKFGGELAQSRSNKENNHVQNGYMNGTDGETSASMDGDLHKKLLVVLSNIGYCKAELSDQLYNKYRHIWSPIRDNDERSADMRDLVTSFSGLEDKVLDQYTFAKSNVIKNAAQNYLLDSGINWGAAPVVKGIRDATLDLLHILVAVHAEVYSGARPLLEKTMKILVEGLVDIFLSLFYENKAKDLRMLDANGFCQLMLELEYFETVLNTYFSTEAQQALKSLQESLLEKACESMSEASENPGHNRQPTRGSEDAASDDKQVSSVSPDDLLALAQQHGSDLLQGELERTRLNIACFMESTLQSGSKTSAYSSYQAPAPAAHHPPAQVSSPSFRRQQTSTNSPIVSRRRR
UniProt A0A8I6YXG1: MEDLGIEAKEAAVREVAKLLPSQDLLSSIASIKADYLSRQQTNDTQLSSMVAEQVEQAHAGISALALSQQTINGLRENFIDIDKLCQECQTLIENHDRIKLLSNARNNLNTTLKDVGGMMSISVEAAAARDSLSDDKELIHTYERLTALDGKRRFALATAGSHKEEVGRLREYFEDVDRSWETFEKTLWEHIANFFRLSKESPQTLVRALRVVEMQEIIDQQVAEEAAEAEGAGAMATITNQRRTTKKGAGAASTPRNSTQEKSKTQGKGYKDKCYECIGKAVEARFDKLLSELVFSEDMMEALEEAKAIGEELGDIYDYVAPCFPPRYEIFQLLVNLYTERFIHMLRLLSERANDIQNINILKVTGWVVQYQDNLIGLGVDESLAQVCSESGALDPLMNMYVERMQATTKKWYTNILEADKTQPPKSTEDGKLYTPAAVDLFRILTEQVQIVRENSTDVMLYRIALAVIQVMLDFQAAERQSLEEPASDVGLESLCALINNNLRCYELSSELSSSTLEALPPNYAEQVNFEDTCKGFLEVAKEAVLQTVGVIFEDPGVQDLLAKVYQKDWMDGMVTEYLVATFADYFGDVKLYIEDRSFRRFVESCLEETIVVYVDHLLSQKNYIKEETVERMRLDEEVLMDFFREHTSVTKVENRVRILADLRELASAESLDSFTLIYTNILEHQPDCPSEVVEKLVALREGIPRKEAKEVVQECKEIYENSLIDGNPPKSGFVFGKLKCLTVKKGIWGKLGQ
UniProt F2DPA5: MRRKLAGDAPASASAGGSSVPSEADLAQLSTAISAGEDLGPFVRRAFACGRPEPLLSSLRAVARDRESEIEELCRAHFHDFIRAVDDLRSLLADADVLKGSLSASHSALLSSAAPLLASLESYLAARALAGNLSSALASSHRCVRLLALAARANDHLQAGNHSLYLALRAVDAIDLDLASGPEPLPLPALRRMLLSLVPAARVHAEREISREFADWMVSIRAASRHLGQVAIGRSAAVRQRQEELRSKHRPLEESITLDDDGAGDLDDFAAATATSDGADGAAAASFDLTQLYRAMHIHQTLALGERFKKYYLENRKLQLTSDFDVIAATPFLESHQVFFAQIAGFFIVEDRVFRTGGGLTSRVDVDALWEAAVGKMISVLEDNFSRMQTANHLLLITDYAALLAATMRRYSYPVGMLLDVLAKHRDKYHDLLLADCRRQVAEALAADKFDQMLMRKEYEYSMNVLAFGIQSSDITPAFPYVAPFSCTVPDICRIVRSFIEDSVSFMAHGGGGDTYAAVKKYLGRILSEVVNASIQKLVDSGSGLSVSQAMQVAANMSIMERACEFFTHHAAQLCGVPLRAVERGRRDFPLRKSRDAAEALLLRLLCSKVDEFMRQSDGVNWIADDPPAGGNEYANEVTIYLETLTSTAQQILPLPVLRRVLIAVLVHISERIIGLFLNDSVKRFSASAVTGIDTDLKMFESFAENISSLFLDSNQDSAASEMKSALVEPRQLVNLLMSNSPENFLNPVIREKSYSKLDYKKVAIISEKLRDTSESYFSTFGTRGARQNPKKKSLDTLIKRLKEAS

Key:
Test in all cases: affinity purification with mass spectrometry
[1] = target: 3×FLAG-HvEXO70A1 (stable transgenic barley) (barley (Hordeum vulgare))
[2] = target: 3×FLAG-HvEXO70FX12 (stable transgenic barley) (barley (Hordeum vulgare))
[3] = target: T1, 3×FLAG-AtEXO70A1 (transiently expressed in N. benthamiana) (A. thaliana) (UniProt Q9LZD3)
T1 sequence: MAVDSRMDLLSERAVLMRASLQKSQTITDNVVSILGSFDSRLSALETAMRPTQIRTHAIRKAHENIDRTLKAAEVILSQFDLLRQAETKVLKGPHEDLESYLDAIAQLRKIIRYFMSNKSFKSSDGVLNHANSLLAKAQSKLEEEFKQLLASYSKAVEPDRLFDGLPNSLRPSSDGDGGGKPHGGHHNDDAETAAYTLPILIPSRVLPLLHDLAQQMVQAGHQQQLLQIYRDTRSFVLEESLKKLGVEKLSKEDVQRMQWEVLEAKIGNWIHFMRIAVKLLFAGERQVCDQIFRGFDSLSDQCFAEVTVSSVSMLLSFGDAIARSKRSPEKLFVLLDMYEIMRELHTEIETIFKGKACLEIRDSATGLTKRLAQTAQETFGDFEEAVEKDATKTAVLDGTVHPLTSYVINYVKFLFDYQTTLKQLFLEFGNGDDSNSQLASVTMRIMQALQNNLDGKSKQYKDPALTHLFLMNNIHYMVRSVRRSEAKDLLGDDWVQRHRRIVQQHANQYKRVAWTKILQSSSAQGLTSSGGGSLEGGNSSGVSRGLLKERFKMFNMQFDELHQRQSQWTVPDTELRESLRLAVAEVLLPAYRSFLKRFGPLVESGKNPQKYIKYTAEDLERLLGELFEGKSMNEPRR

[4] = target: T2, AtLTI6B-3×FLAG (transiently expressed in N. benthamiana) (A. thaliana) (UniProt Q9ZNS6)
T2 sequence: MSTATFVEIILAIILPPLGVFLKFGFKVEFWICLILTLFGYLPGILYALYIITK

Row | binding [1] | binding [2] | binding [3] | binding [4] | Substance
1 | binds | no binding | – | – | HvEXO84B-1 (from UniProt A0A8I6XUP7)
2 | binds | no binding | – | – | HvSEC8 (from UniProt A0A8I6ZAC4)
3 | binds | no binding | – | – | HvSEC10 (from UniProt A0A8I7B8K2)
4 | binds | no binding | – | – | HvSEC15A-2 (from UniProt M0Z256)
5 | – | – | binds | no binding | NbSEC15B (N. benthamiana (endogenous in leaves))

More lines, now with the values behind:

Row | Substance | binding [1] | binding [2] | binding [3] | binding [4]
6 | HvEXO84B-2 (from UniProt A0A8I6X584) | binds | no binding | – | –
7 | HvSEC5B (from UniProt A0A8I6XA15) | binds | no binding | – | –
8 | HvSEC6 (from UniProt A0A8I6YXG1) | binds | no binding | – | –
9 | HvSEC15A-1 (from UniProt A0A8I6XT81) | binds | no binding | – | –
10 | HvSEC15B (from UniProt F2DPA5) | binds | no binding | – | –
11 | NbEXO84B (N. benthamiana (endogenous in leaves)) | – | – | binds | no binding
12 | NbSEC10 (N. benthamiana (endogenous in leaves)) | – | – | binds | no binding
